Assay [1] deals with collagen type III from human placenta (human) (UniProt P02461). Kind of assay: ELISA; VWF of human plasma captured on coated human placenta collagen type III, in the presence of 600 nM one-arm antibodies. (In general: An ELISA detects its analyte on a solid surface through an enzyme-linked reagent.)
Assay [2] shares this target. Kind of assay: ELISA; 2 nM plasma-derived VWF on coated human placenta collagen III, pre-incubated with 0 or 300 nM monovalent antibodies.

Protein sequences, listed by entry. Tags and fused reporters are not part of them. Lines headed by an entry give the natural chain unless they say otherwise; changes in a name come on top. Residues count along the entry.
UniProt P02461, residues 154-1221: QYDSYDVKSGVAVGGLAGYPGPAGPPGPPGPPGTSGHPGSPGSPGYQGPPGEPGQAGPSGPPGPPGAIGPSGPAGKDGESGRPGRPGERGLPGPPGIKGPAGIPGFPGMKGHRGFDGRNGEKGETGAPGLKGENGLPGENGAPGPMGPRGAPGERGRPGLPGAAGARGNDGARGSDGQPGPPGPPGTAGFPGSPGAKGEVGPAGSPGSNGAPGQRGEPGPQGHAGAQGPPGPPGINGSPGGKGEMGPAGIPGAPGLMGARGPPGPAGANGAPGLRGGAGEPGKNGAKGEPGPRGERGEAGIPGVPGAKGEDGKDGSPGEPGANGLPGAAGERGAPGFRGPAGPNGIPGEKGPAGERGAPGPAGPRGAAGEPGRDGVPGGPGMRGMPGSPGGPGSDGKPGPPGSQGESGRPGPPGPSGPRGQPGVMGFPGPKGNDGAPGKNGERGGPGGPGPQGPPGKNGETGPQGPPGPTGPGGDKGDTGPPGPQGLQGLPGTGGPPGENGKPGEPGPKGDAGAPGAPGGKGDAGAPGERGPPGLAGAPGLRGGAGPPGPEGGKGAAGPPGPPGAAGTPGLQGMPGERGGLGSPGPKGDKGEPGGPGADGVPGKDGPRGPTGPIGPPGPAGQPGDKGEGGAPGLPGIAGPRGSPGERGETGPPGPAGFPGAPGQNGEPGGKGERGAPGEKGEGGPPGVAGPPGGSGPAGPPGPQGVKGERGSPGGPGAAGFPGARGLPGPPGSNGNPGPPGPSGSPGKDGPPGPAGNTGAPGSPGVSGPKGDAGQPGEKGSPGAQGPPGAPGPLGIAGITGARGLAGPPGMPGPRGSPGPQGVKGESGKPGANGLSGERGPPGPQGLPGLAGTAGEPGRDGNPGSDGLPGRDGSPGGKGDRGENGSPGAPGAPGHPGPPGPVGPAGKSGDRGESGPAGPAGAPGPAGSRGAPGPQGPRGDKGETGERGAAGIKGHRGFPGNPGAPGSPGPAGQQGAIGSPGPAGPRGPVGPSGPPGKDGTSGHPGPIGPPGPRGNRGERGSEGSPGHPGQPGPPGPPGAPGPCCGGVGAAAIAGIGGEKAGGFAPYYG
UniProt P04275: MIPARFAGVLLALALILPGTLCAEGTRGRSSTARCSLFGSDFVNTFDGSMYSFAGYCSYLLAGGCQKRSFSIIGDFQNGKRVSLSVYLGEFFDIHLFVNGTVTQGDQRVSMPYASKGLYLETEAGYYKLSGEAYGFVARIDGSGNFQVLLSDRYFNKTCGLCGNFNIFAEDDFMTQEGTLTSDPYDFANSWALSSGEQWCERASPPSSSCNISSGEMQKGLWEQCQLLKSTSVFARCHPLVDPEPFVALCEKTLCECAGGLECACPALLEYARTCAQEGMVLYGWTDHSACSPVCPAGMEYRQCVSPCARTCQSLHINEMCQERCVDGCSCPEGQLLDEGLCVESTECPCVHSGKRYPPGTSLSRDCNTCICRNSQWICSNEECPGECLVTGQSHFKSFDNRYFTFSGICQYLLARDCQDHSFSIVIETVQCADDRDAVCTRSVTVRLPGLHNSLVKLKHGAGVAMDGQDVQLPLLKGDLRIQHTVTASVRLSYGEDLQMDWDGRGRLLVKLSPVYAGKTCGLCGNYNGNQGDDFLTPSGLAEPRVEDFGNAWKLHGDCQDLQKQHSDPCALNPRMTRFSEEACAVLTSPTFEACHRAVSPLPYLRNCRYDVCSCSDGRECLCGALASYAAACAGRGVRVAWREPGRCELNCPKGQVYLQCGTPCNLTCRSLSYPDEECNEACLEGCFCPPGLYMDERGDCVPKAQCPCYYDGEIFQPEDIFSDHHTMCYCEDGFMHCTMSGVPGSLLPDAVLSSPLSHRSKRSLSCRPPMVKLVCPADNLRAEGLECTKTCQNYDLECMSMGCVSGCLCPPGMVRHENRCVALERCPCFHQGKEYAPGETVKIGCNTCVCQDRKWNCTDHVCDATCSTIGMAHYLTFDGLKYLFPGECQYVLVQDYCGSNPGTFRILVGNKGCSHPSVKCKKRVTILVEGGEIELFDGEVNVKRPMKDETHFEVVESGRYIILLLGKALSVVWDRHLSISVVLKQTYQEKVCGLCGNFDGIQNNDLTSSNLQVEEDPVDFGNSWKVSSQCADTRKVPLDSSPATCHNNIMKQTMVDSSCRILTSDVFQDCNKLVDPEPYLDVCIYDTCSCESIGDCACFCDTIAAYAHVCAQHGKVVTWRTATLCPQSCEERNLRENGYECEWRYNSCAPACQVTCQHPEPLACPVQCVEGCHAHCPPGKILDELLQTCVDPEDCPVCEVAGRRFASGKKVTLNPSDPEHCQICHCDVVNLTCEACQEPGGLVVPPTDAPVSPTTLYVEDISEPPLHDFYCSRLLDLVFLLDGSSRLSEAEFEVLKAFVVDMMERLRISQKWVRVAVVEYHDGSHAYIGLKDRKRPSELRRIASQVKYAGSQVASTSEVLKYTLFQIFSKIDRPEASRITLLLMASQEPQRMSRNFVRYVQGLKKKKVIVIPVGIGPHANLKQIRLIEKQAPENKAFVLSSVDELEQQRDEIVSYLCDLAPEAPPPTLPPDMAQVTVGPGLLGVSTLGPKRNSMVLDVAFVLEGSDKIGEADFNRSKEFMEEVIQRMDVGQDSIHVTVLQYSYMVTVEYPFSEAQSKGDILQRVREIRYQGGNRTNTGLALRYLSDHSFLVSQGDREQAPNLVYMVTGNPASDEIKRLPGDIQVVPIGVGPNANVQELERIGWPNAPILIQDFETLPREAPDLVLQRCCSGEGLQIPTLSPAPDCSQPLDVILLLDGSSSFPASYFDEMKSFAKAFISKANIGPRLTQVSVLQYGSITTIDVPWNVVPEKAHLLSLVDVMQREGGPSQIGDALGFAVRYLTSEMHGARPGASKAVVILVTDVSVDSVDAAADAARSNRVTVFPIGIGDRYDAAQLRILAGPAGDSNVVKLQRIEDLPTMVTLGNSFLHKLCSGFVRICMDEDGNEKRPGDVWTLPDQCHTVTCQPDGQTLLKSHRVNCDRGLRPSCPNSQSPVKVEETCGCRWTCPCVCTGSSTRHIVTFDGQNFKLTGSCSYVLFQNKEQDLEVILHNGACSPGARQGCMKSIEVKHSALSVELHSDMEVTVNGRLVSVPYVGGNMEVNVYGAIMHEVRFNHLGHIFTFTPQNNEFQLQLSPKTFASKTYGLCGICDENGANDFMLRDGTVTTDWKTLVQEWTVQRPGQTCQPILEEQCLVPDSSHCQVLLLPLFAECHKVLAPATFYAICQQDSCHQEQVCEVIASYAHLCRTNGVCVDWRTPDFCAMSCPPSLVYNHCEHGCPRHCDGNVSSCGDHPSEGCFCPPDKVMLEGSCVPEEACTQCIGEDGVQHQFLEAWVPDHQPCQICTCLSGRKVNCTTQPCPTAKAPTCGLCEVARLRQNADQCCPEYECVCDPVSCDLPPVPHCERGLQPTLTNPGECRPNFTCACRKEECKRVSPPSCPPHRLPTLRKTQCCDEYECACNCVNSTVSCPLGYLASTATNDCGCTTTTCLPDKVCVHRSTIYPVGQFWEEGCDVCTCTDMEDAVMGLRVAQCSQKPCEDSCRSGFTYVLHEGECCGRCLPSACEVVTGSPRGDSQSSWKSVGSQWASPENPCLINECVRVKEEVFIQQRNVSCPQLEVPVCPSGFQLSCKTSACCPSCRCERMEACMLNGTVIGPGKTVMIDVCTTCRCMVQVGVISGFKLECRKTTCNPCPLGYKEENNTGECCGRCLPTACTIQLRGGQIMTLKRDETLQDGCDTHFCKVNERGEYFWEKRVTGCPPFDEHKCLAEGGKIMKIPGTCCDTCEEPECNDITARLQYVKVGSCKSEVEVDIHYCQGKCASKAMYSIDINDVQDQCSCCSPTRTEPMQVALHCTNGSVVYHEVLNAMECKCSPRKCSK

These are yes or no findings as the source states them, for the method shown. Some binding calls cover weakened binding; strength is not graded here.

One substance from patent WO2025037032A1 can be followed below.

Take “human plasma-derived VWF (from UniProt P04275 764-2813)”: the binding entry in assay [1] and in assay [2] was “binds” each time.
